Source: article doi:10.1101/2024.08.06.606614 (bioRxiv, 2024)
Like-named read-outs stand apart in the source and are kept apart here. No constants are given. Whether binding was seen depends on the method and setting. Some binding calls cover weakened binding; strength is not graded here. One block for each molecule: values may come before it.

By UniProt entry, the sequences of proteins in these tests, tags left out.
UniProt Q8K3V1: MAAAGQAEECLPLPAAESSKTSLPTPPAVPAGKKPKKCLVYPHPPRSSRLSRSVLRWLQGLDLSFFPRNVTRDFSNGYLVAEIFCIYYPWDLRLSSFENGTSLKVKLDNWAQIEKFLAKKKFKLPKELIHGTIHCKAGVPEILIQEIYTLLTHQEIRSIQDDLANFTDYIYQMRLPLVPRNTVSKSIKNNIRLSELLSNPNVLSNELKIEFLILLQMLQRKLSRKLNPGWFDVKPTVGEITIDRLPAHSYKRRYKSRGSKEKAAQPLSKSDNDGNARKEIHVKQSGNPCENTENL
UniProt Q3V0B4: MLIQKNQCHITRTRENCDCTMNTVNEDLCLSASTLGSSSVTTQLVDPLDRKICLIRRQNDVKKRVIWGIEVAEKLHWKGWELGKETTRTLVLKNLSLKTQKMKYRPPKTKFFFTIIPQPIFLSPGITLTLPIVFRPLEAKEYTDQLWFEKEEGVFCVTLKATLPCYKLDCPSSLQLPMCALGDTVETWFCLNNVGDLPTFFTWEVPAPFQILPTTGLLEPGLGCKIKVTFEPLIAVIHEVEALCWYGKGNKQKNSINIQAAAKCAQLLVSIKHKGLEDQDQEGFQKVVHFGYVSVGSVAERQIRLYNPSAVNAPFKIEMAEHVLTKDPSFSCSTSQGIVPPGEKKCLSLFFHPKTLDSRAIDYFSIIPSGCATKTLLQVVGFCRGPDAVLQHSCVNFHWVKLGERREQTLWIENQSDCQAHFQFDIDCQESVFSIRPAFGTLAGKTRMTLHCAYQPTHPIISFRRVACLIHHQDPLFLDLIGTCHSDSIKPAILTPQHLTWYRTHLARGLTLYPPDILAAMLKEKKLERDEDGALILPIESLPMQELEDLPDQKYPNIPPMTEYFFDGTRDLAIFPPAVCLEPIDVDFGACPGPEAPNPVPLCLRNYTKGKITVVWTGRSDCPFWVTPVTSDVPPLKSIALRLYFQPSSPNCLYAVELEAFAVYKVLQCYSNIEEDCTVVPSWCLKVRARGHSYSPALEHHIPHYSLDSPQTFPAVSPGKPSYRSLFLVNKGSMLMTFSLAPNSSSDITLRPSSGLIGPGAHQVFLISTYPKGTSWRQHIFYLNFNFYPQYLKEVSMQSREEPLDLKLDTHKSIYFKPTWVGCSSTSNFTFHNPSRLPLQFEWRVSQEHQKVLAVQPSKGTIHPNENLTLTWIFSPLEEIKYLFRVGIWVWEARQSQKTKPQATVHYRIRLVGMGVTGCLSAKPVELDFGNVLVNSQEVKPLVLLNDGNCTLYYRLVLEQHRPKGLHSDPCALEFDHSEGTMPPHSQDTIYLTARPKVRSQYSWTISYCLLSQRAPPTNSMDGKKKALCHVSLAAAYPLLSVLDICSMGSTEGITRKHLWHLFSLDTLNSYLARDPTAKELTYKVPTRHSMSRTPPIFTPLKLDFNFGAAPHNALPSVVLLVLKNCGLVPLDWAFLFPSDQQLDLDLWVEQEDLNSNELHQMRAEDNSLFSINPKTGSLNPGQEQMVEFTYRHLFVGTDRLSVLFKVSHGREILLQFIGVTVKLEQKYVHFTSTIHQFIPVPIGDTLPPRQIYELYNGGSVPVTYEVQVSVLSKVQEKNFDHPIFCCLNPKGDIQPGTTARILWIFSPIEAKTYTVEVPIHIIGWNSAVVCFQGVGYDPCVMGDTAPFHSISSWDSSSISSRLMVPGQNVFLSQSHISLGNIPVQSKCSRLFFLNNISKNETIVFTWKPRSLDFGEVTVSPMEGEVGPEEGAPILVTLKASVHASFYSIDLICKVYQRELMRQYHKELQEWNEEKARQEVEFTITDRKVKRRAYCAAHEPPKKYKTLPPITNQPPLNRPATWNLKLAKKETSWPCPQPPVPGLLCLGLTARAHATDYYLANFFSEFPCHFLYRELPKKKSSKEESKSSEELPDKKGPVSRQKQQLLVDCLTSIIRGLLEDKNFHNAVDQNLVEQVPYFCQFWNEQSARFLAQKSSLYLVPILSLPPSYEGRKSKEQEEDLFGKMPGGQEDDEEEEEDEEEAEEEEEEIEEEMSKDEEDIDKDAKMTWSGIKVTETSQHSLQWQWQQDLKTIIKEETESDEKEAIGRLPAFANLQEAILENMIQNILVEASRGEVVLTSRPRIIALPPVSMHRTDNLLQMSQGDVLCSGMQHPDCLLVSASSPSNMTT
UniProt A0A0G2JEB6: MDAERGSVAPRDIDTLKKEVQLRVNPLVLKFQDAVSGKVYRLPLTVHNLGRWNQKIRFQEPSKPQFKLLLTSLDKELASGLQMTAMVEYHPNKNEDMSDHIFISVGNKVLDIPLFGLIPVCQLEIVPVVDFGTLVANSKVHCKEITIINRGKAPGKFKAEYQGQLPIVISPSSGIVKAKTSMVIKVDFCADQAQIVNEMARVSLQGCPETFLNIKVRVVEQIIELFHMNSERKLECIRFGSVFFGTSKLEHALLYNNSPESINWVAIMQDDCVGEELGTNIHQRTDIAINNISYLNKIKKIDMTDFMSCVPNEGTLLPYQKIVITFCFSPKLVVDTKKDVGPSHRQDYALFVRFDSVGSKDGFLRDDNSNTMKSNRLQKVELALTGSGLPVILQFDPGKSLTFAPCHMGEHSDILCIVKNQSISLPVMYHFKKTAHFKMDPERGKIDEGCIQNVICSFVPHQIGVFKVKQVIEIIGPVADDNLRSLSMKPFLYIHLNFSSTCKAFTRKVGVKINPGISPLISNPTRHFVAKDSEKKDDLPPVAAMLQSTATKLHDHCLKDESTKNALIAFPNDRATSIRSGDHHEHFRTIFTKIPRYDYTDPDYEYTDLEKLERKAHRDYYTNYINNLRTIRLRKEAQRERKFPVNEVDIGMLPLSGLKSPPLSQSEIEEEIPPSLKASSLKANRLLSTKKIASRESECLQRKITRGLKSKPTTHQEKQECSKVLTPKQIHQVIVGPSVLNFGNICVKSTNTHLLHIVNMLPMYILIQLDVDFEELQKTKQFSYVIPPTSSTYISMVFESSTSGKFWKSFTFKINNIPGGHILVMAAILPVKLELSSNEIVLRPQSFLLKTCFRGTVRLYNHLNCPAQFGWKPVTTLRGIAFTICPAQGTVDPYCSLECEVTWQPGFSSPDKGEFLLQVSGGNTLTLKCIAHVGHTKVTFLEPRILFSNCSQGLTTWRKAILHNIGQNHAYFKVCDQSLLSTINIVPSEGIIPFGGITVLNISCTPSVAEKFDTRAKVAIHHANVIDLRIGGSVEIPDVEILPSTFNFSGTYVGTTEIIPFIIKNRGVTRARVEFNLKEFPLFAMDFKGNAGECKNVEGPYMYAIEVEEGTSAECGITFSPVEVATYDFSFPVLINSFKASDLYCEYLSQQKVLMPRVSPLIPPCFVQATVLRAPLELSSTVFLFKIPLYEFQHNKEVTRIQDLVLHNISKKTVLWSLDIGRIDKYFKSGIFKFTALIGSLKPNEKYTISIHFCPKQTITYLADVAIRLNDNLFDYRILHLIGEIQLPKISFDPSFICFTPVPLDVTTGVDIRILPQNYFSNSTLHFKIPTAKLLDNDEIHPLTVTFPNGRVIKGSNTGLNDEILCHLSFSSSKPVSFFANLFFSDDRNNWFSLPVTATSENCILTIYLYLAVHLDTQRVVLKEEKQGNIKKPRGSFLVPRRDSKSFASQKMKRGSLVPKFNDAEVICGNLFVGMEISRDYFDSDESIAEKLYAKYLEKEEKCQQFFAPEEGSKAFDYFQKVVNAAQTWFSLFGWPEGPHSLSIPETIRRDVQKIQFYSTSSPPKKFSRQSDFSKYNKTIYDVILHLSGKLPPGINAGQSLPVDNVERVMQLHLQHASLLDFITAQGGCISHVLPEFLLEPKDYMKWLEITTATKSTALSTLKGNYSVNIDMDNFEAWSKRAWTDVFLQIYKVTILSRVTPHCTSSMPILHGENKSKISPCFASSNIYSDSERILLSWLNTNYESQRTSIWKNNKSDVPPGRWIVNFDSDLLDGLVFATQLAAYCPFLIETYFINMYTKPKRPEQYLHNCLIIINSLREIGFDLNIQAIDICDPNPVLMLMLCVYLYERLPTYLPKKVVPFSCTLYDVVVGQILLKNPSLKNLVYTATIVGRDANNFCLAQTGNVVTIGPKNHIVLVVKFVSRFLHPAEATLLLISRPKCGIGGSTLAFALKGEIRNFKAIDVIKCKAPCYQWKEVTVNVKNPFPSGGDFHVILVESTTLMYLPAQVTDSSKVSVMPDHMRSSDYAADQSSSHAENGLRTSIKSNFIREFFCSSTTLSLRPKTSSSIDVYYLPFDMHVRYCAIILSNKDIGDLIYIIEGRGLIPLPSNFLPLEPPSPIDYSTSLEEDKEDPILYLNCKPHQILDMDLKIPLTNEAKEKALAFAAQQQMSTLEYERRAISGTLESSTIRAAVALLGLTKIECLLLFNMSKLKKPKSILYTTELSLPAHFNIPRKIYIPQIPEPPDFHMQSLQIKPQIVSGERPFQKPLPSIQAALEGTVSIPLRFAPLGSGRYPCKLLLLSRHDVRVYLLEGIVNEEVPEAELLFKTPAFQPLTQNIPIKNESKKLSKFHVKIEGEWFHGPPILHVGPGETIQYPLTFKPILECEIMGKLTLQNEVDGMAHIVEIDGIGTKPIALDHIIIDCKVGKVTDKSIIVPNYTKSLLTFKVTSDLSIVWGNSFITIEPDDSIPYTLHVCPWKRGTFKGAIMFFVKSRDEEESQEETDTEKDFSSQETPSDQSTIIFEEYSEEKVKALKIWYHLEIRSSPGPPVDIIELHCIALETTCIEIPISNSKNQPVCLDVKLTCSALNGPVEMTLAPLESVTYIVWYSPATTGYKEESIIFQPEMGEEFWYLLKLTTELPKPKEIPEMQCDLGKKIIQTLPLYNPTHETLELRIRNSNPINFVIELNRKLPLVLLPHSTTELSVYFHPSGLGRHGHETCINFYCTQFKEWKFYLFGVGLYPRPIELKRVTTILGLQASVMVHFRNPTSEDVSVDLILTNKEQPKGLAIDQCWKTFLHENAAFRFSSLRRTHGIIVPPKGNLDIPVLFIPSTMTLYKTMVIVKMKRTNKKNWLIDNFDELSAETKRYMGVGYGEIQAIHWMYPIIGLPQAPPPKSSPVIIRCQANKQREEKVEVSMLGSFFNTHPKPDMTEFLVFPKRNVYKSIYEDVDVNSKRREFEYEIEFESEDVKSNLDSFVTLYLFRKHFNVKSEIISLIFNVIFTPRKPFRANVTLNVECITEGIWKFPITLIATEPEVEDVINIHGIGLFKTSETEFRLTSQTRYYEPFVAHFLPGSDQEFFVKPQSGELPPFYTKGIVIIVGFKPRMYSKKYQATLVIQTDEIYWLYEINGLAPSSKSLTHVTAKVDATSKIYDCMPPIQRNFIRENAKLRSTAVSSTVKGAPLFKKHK

What was measured:
Assay in all cases: cryo-EM structure
[1] = target: T1, sperm-associated antigen 6 (SPAG6) (mouse (endogenous in mouse sperm)) (UniProt Q9JLI7)
T1 sequence: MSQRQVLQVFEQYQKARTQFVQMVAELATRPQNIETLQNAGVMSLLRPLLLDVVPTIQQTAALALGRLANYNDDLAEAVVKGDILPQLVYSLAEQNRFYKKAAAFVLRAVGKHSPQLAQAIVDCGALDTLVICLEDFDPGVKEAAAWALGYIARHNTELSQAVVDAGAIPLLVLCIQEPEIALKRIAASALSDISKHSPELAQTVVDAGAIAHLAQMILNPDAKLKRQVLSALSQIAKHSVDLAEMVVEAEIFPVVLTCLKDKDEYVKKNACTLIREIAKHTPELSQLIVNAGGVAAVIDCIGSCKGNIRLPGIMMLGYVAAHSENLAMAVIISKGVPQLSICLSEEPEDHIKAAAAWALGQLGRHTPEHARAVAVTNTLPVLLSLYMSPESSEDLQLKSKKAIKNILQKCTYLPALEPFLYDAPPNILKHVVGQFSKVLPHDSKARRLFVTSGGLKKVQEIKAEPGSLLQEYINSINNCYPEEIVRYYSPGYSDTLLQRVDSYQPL

[2] = target: HYDIN (mouse (endogenous in mouse sperm)) (UniProt Q80W93)
[3] = target: T2, SPAG16 (mouse (endogenous in mouse sperm)) (UniProt Q8K450)
T2 sequence: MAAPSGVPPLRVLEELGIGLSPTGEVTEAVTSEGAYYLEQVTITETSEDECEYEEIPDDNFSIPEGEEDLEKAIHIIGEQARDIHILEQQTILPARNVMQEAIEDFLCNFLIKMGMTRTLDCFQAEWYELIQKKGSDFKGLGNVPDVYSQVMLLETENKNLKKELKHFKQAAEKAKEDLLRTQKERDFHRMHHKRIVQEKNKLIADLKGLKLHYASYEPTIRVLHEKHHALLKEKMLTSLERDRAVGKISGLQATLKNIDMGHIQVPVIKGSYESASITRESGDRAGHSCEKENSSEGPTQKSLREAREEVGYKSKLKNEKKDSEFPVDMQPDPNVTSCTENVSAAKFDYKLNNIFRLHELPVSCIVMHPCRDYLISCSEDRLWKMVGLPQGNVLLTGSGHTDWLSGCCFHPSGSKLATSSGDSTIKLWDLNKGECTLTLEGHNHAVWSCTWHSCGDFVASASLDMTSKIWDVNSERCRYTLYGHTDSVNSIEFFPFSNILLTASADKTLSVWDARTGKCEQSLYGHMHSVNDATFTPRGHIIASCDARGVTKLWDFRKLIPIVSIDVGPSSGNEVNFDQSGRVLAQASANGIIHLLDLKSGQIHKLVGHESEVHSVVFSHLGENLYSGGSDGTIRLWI

[4] = target: SPATA4 (mouse (endogenous in mouse sperm)) (UniProt Q8K3V1)
[5] = target: T1, sperm-associated antigen 6 (SPAG6) (mouse (endogenous in mouse sperm)); remark: listed apart in the source
[6] = target: CFAP47 (mouse (endogenous in mouse sperm))
[7] = target: HYDIN (mouse (endogenous in mouse sperm)) (UniProt Q80W93); remark: listed apart in the source
[8] = target: CFAP65 (mouse (endogenous in mouse sperm)) (UniProt Q3V0B4)

Molecule: SPEF2 (from UniProt Q8C9J3 1-1724)
binding [1]: binds | binding [2]: binds

B1: SPAG16 (natural protein)
chain: MAAPSGVPPLRVLEELGIGLSPTGEVTEAVTSEGAYYLEQVTITETSEDECEYEEIPDDNFSIPEGEEDLEKAIHIIGEQARDIHILEQQTILPARNVMQEAIEDFLCNFLIKMGMTRTLDCFQAEWYELIQKKGSDFKGLGNVPDVYSQVMLLETENKNLKKELKHFKQAAEKAKEDLLRTQKERDFHRMHHKRIVQEKNKLIADLKGLKLHYASYEPTIRVLHEKHHALLKEKMLTSLERDRAVGKISGLQATLKNIDMGHIQVPVIKGSYESASITRESGDRAGHSCEKENSSEGPTQKSLREAREEVGYKSKLKNEKKDSEFPVDMQPDPNVTSCTENVSAAKFDYKLNNIFRLHELPVSCIVMHPCRDYLISCSEDRLWKMVGLPQGNVLLTGSGHTDWLSGCCFHPSGSKLATSSGDSTIKLWDLNKGECTLTLEGHNHAVWSCTWHSCGDFVASASLDMTSKIWDVNSERCRYTLYGHTDSVNSIEFFPFSNILLTASADKTLSVWDARTGKCEQSLYGHMHSVNDATFTPRGHIIASCDARGVTKLWDFRKLIPIVSIDVGPSSGNEVNFDQSGRVLAQASANGIIHLLDLKSGQIHKLVGHESEVHSVVFSHLGENLYSGGSDGTIRLWI
binding [4]: binds

B2: SPATA17 (protein, UniProt Q9D552 1-379)
chain: METNSNNFGELQELKDMATLAKLLARAPFLESQYYFRNRAVDSFRKFENDAAVMIQSWFRGCQVRAYMRHLNRVVTIIQKWWRSYLGRKFYQLVVEAAYYTMKMNLYNEMAVRIQRRWRGFRIRKYCFNYYYLKEYLRAVSETNDAIREALEEFAEMKEREERKVLLEREEKQKDYQARKMHYLLSTKQISGIYNSPFREHPDPWELRLQKAKPLGHQKYTAEKGKTSQSPSNWLACTSVHSFPQSESLPPISRKRCQGPFRDINEVLEQRYKPLEPTLRVAEPINHLRLAREAFKQEERMRNVQDKMFLPFSSYHKKEKYIPMIHSSSAYNSDSYGQKHFRSQDSKKWISDKDFQTVLPSFQLFSKYGKLYSKAGEIV
binding [5]: binds

B4: MAP1S (microtubule-associated protein 1S) (protein, UniProt Q8C052 1-973)
chain: MAAVMAAPEAVEAPSSLLLLVVGGECGCPGLLAYVMEELERGVRSWEDVDPAVCSLDEQLKAFVSRHSATFSSIVKGQRSLHHRGETLETLVLLNPSDKSLCDELRNLLMDPAPHKLLVLAGPCLEETGELLLQTGGFSAHHFLQVLGDKEVQDALASAPAAPALTVSCPTFGDWALLGPVPGLQLRLNPPAQLPASEGLRAFLEYVAESLEPPSPFELLEPPAAGGFLRLARPCCYVFPGGLGDAAFFAVNGFTVLVNGGSNPKSSFWKLVRHLDRVDAVLVTHAGADSLPGLNSLLRRKLAEREAAAGPQGQHEERLRRLLSPALGVVFLNAREAASRLRGGEDEAVCARSLLRSLGIAPLPLQRGPQPSCPTVLFEKLGVGRLELFVLHPPPGDPAAPACALLVWQPAAPGDKVVRVLFPGRTPPARLLDGLQRLQHLPCLRRPVVTTHDLEAPSRANSQDSLASRDSARKEPVRGTVGSIANRSTVRREPALATRDQKKDTRSGPTQPTARDTRRSGPGVVNTKPRVSQNGPRAPVLAAPLTAPVAECPGEAENILESERPPAPSPTLSPAQSPPPTAPGNSPERLSLSPLRPEPAPDASPSATTPTLTTPSLPAELGSPHSTEVDESLSVSFEQVLPAGDPGLSLPLRLARRSTSPHDVDLCLVSPCEFSHRKPPPPASPGSSDSSARSQERPPETPPTSVSESLPTLSDSDPVPVADSDDDAGSESAARDPPPTPRVPPPLPDVPGICMVDPEALPPRARQPLNTTNPSRSRKAPARPSSASATPRAATVAAKTKGPAGDRNRPLSARSEPADRPGRVPLTRKPSVPKTVPKMASATRLSSGPSGRPAPLAAGSPVYLDLAYLPGGGAGHLDQNFFLRVRALCYVISGQGQRQEEGLRAVLDALLAGKRQWDLDLQVTLIPTFDSAVMHRWYEETHAQHQALGIRVLGSGSLVSMQDEAFPACKVEF
binding [7]: binds

B5: KIF9 (protein, UniProt Q9WV04 1-790)
chain: MGTRKKVQAFVRVRPTDDFAHEMIKYGEDNKSIDIHLKKDTRRGVVNNQQTDWSFKLDGVLHNASQDLVYETVAKDAVSQALDGYNGTIMCYGQTGAGKTYTMTGATENYKHRGILPRALQQVFRMIEERPTHAITVRVSYLEIYNENLFDLLSTLPYVGPSVTPMTIVENPQGIFIKGLSVHLTSQEEDAFSLLFEGETNRIIASHTMNKNSSRSHCIFTIYMEAHSRTLSDEKYITSKINLVDLAGSERLSKTGSEGRVLKEATYINKSLSFLEQAIIALGDQNRDHVPFRQSKLTHALKDSLGGNCNMVLVTNIYGEAAQLDETLSSLRFASRMKLVTTEPAINEKYDAERMVKNLEKELALLKQELAIHDSLSNRTLVNYDPMDEIQIAEINSQVRRYLEGTLDEIDIINLRQIQEVFNQFRVVLSQQEQEVESALRRKYTLIDKNDFAAISAVQKVGLMDIEGNLVGEPDGQSFGLGVAPFSVKPGKKPKTKKTPKDQFSSSARKEGASSPVSGKDFDVASISKTQLIPSSKDGDLKDMLARERETSSIEPLISDSPKEELRAPRPSTPPSRTVAFEEFKNERGSEINRIFKENKSILNERKKRASETTQRINAIKQEIDETKDALNFQKSLREKQGEYENKGLMIIDEEEFLLILKLKDLKKQYRNEYQELRDLRAEIQYCQRLVDQCRHRLLMEFDIWYNESFMIPEDVQVALKLGSSIRPGMVPISRIVCLGEDDQDRFSHLQQTVLPEGLDSITFYNAKVKTDQKHNYMKTMVGLQQSHRK
binding [8]: binds

Next, values leading:

binding [2]: binds | binding [3]: binds
Molecule: CFAP47 (from UniProt A0A0G2JEB6 1-3184)

binding [6]: binds
B3: germ cell-less 1 (GMCL1) (natural protein)
chain: MGALSSRVLRPAGRTEQPEPTPGAGGAARRSDAGEDAGHSFCYCPGGRKRKRSSGTFCYCHPDSETDDDEDEGDEQQRLLNTPRRKKLKSTSKYIYQTLFLNGENSDIKICALGEEWSLHKIYLCQSGYFSSMFSGSWKESSMNIIELEIPDQNIDIEALQVAFGSLYRDDVLIKPSRVVAILAAACMLQLDGLIQQCGETMKETISVRTVCGYYTSAGTYGLDSVKKKCLEWLLNNLMTHQSVELFKELSINVMKQLIGSSNLFVMQVEMDVYTALKKWMFLQLVPSWNGSLKQLLTETDVWFSKWKKDFEGTTFLETEQGKPFAPVFRHLRLQYIISDLASARIIEQDSLVPSEWLAAVYKQQWLAMLRAEQDSEVGPQEINKEELEGNSMRCGRKLAKDGEYCWRWTGFNFGFDLLVTYTNRYIIFKRNTLNQPCSGSVSLQPRRSIAFRLRLASFDSSGKLICSRATGYQILTLEKDQEQVVMNLDSRLLIFPLYICCNFLYISPEKRTESNRHPENPGH

binding [5]: binds | binding [6]: binds
B6: sperm-associated antigen 6 (SPAG6) (protein, UniProt Q9JLI7 1-507)
chain: MSQRQVLQVFEQYQKARTQFVQMVAELATRPQNIETLQNAGVMSLLRPLLLDVVPTIQQTAALALGRLANYNDDLAEAVVKGDILPQLVYSLAEQNRFYKKAAAFVLRAVGKHSPQLAQAIVDCGALDTLVICLEDFDPGVKEAAAWALGYIARHNTELSQAVVDAGAIPLLVLCIQEPEIALKRIAASALSDISKHSPELAQTVVDAGAIAHLAQMILNPDAKLKRQVLSALSQIAKHSVDLAEMVVEAEIFPVVLTCLKDKDEYVKKNACTLIREIAKHTPELSQLIVNAGGVAAVIDCIGSCKGNIRLPGIMMLGYVAAHSENLAMAVIISKGVPQLSICLSEEPEDHIKAAAAWALGQLGRHTPEHARAVAVTNTLPVLLSLYMSPESSEDLQLKSKKAIKNILQKCTYLPALEPFLYDAPPNILKHVVGQFSKVLPHDSKARRLFVTSGGLKKVQEIKAEPGSLLQEYINSINNCYPEEIVRYYSPGYSDTLLQRVDSYQPL
